The list shows only some results of the screen, not a fair sample: it gathers tests that were run many times, whatever their T/C, doses with no T/C, and many T/C values between a quarter and a half above the control. Other doses and runs of a compound stand elsewhere. T/C: endpoint of the treated group in % of that of the vehicle group. Some entries give survivors of the animals treated and no T/C: the source files T/C as zero there, which appears to mark a toxic dose or a test without result, not a measured value. Some doses without a T/C left all or most animals alive at the check, yet need not have been tolerated: survival well below the control is almost never listed, so the zero probably covers shortened survival too. Counts of survivors are from the toxicity check (mostly the fifth day) where no day follows; animals may have died later. Schedules are NCI's codes, read here as Q, the interval in days (D) or hours (H), X, the number of doses. Some structures stand for samples that the source files as different forms (salt, stereo form or complex); doses refer to the form tested. For survival time, the PubChem record calls one and a half times the control and up active, and a quarter to a half above the control has no call in these data; cut-offs in other NCI protocols can differ.
Test system: L1210 leukemia ip in BDF1 mice, survival T/C
Assay: NCI In Vivo Anticancer Drug Screen. Data for tumor model L1210 Leukemia (intraperitoneal) in B6D2F1 (BDF1) mice
Conditions: T/C endpoint: mean survival time, higher T/C = longer survival
[1] = dose: 400.0 mg/kg/injection, schedule: Q04DX003 (ip), vehicle: saline with Tween-80
[2] = dose: 200.0 mg/kg/injection, schedule: Q04DX003 (ip), vehicle: saline with Tween-80

Q: For NC(=O)NC1CC(c2ccccc2)C(O)(c2ccccc2)C1 (configuration not stated), which survivor count (dose: 400.0 mg/kg/injection, schedule: Q01DX001 (ip), vehicle: saline) is on record?
A: Its survivor count is 4 of 4.

Q: Which results are given for O=C(Cc1cccc2ccccc12)N/N=C/c1ccccc1O?
A: survivor count (dose: 200.0 mg/kg/injection, schedule: Q01DX009 (ip), vehicle: saline with Tween-80): 5 of 6; survivor count (dose: 400.0 mg/kg/injection, schedule: Q01DX009 (ip), vehicle: saline with Tween-80): 4 of 6

Q: What does the source list for Cc1cccc(NC(=O)N(CCCl)N=O)c1?
A: T/C (dose: 2.6 mg/kg/injection, schedule: Q01DX009 (ip), vehicle: carboxymethylcellulose (CMC)): 131 % of control; survivor count (dose: 100.0 mg/kg/injection, schedule: Q01DX001 (ip), vehicle: carboxymethylcellulose (CMC)): 1 of 4; survivor count (dose: 200.0 mg/kg/injection, schedule: Q01DX001 (ip), vehicle: carboxymethylcellulose (CMC)): 0 of 4; survivor count (dose: 400.0 mg/kg/injection, schedule: Q01DX001 (ip), vehicle: carboxymethylcellulose (CMC)): 0 of 4

Q: What does the source list for CC(=O)C(CCC#N)C(C)=O.CC(=O)C(CCC#N)C(C)=O.[Cu]?
A: survivor count (dose: 50.0 mg/kg/injection, schedule: Q04DX003 (ip), vehicle: Klucel (hydroxypropylcellulose) (HPC)): 2 of 6; survivor count (dose: 100.0 mg/kg/injection, schedule: Q04DX003 (ip), vehicle: Klucel (hydroxypropylcellulose) (HPC)): 0 of 6; survivor count (dose: 200.0 mg/kg/injection, schedule: Q04DX003 (ip), vehicle: Klucel (hydroxypropylcellulose) (HPC)): 0 of 6; survivor count (dose: 400.0 mg/kg/injection, schedule: Q04DX003 (ip), vehicle: Klucel (hydroxypropylcellulose) (HPC)): 1 of 6

Q: CCCC(=O)Nc1ccn(C2OC(COC(=O)CCC)C(OC(=O)CCC)C2OC(=O)CCC)c(=O)n1 (configuration not stated) was tested. Which T/C (dose: 600.0 mg/kg/injection, schedule: Q01DX001 (ip), vehicle: carboxymethylcellulose (CMC)) did it give?
A: The T/C was 127 % of control.

Q: With O=C1c2ccccc2C(=O)N1Nc1ccccc1 as the compound, how does the survivor count (dose: 50.0 mg/kg/injection, schedule: Q01DX001 (ip), vehicle: acid diluted with saline) read?
A: Its survivor count is 0 of 4.

Q: And the survivor count (dose: 100.0 mg/kg/injection, schedule: Q01DX001 (ip), vehicle: acid diluted with saline)?
A: Its survivor count is 0 of 4.

Q: What about the survivor count (dose: 200.0 mg/kg/injection, schedule: Q01DX001 (ip), vehicle: acid diluted with saline) of the same compound?
A: The survivor count was 0 of 4.

Q: And the survivor count (dose: 400.0 mg/kg/injection, schedule: Q01DX001 (ip), vehicle: acid diluted with saline)?
A: The survivor count was 0 of 4.

Q: Which T/C (dose: 7.75 mg/kg/injection, schedule: Q01DX015 (ip), vehicle: methylcellulose (MC)) does the source give for C=CCNC(=O)N(CC)C(=NCC)c1ccc(NC(=O)c2ccc(C(=O)Nc3ccc(C(=NCC)N(CC)C(=O)NCC=C)cc3)cc2)cc1 here?
A: Its T/C is 132 % of control.

Q: What about the survivor count (dose: 15.5 mg/kg/injection, schedule: Q01DX015 (ip), vehicle: methylcellulose (MC)) of the same compound?
A: Its survivor count is 0 of 6.

Q: And the survivor count (dose: 31.0 mg/kg/injection, schedule: Q01DX015 (ip), vehicle: methylcellulose (MC))?
A: The survivor count was 0 of 6.

Q: And the survivor count (dose: 62.0 mg/kg/injection, schedule: Q01DX015 (ip), vehicle: methylcellulose (MC))?
A: Its survivor count is 0 of 6.

Q: What about the survivor count (dose: 125.0 mg/kg/injection, schedule: Q01DX015 (ip), vehicle: methylcellulose (MC)) of the same compound?
A: The survivor count was 0 of 6.

Q: And the survivor count (dose: 250.0 mg/kg/injection, schedule: Q01DX015 (ip), vehicle: methylcellulose (MC))?
A: Its survivor count is 0 of 6.

Q: What about the survivor count (dose: 500.0 mg/kg/injection, schedule: Q01DX015 (ip), vehicle: methylcellulose (MC)) of the same compound?
A: Its survivor count is 0 of 6.

Q: Which survivor count [1] does the source give for CC(C)=CCC(=O)Oc1ccccc1C(=O)O here?
A: The survivor count was 3 of 6.

Q: How did the T/C (dose: 180.0 mg/kg/injection, schedule: Q01DX009 (ip), vehicle: other) turn out when Nc1nc2c(c(=O)[nH]1)NC(CCNc1ccc(C(=O)NC(CCC(=O)O)C(=O)O)cc1)CN2 (configuration not stated) was run?
A: The T/C was 127 % of control.

Q: For NC(N)=NC(N)=Nc1ccc(Cl)c(Cl)c1, which survivor count (dose: 75.0 mg/kg/injection, schedule: Q01DX009 (ip), vehicle: Klucel (hydroxypropylcellulose) (HPC)) is on record?
A: The survivor count was 2 of 6.

Q: What about the survivor count (dose: 150.0 mg/kg/injection, schedule: Q01DX009 (ip), vehicle: Klucel (hydroxypropylcellulose) (HPC)) of the same compound?
A: Its survivor count is 0 of 6.

Q: And the survivor count [2]?
A: Its survivor count is 5 of 6.

Q: What about the survivor count (dose: 300.0 mg/kg/injection, schedule: Q01DX009 (ip), vehicle: Klucel (hydroxypropylcellulose) (HPC)) of the same compound?
A: The survivor count was 0 of 6.

Q: And the survivor count [1]?
A: The survivor count was 0 of 6.

Q: Which survivor count (dose: 80.0 mg/kg/injection, schedule: Q01DX001 (ip), vehicle: saline) does the source give for COc1cc2c(c(OC)c1OC)CCNC2 here?
A: The survivor count was 1 of 6.

Q: What does the source list for N#Cc1cnn(C(N)=S)c1N?
A: survivor count (dose: 100.0 mg/kg/injection, schedule: Q01DX009 (ip), vehicle: saline): 2 of 6; survivor count (dose: 200.0 mg/kg/injection, schedule: Q04DX003 (ip), vehicle: saline): 1 of 6; survivor count (dose: 400.0 mg/kg/injection, schedule: Q04DX003 (ip), vehicle: saline): 0 of 6

Q: Which survivor count (dose: 100.0 mg/kg/injection, schedule: Q04DX003 (ip), vehicle: saline with Tween-80) does the source give for CN(C)CCC(=O)c1ccc([N+](=O)[O-])cc1 here?
A: Its survivor count is 0 of 6.

Q: And the survivor count [2]?
A: Its survivor count is 0 of 6.

Q: What about the survivor count [1] of the same compound?
A: Its survivor count is 0 of 6.

Source: PubChem BioAssay AID248 (DTP/NCI, 2004)
